Laboratory results taken from patent US20240279337A1.
These are yes or no findings as the source states them, for the method shown. Some results given as binding are weak or reduced against the parent protein; the word gives no strength.

Key:
[1] = target: T1, mouse CD276 on mouse TNBC 4T1 cells (mouse) (UniProt Q8VE98); experiment: live-cell confocal microscopy, 4T1 cells
T1 sequence (looked up): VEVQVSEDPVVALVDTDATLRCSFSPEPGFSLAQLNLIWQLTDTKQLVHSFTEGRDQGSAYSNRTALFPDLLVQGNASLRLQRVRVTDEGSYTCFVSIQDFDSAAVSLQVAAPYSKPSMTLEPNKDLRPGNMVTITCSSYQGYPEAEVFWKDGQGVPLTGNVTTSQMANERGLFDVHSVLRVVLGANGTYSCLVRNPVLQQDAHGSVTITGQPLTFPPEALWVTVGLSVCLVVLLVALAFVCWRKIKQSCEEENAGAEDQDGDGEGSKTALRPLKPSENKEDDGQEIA

[2] = target: T2, human CD276 (B7-H3) on human TNBC cells (MDA-MB-231, MDA-MB-468) (human) (UniProt Q5ZPR3); experiment: live-cell confocal microscopy, MDA-MB-468 cells
T2 sequence (looked up): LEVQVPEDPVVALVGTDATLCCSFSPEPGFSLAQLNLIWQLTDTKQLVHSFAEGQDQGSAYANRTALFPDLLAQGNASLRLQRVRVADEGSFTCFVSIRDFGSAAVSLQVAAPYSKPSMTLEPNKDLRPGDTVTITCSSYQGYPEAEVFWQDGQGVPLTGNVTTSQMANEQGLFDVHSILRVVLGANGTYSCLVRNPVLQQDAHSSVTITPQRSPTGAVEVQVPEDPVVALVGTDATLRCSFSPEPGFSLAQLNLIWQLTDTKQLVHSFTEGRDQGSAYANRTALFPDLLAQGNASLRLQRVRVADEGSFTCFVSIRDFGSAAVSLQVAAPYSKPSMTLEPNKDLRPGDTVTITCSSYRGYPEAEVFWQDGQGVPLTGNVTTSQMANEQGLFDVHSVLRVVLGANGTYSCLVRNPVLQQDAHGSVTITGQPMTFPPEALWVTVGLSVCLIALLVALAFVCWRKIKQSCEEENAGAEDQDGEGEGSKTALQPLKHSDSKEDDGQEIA

[3] = target: T1, mouse CD276 on mouse TNBC 4T1 cells (mouse); experiment: live-cell confocal microscopy, 4T1 cells (legend of FIG. 3)
[4] = target: T2, human CD276 (B7-H3) on human TNBC cells (MDA-MB-231, MDA-MB-468) (human); experiment: live-cell confocal microscopy, MDA-MB-468 cells (legend of FIG. 3)
[5] = target: T1, mouse CD276 on mouse TNBC 4T1 cells (mouse); experiment: in vivo and ex vivo IVIS imaging, Cy5.5-labelled mAb, 4T1-FLuc tumours in BALB/cJ mice
[6] = target: T2, human CD276 (B7-H3) on human TNBC cells (MDA-MB-231, MDA-MB-468) (human); experiment: in vivo and ex vivo IVIS imaging, Cy5.5-labelled mAb, MDA-MB-468-FLuc xenograft in NSG mice

Measured: binding

B1: anti-CD276 mAb (top hybridoma clone, IgG2b/kappa) (antibody, V domains shown)
VH: EVQLQQSGPELVKPGASVKISCKTSGYTFTEYTMHWVKQSHGKSLEWIGSNNPNTGGTTYNQKFKDKATLTVDKSSNTAYMELRSLTSDDSAVYYCSRSGNDVGWYFAVWGAGTTVTVSS
VL: QIVLTQSPAIMSASPGEKVTMTCTATSSVSYMHWYQQKSDSSPKRWIYDTSKLASGVPDRFSGSGSGTSYSLIISSMEAEDAATYYCQQWSSNPLTFGAGTKLELKR
binds: all assays above
